Laboratory results reported in US20160032291.
Where cells or extracts were used, other partners may take part. For part of these data: Negatives hold for the conditions tested. For part of these data: The comparison behind a weaker result is the experiment's own reference, which may not be listed here. For part of these data: Construct, isoform or probe ends are uncertain for at least one entry.

By UniProt entry, the sequences of proteins in these tests, tags left out. Residues count along the entry.
UniProt P09564, 26-240: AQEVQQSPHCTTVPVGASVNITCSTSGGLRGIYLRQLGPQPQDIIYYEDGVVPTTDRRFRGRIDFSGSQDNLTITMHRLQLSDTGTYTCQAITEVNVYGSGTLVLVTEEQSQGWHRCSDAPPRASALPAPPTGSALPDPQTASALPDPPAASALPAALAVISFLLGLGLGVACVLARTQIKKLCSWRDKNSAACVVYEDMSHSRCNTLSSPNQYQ

Key:
[1] = biological target: CD7 (T-cell surface receptor) (Homo sapiens) (UniProt P09564); assay: binding assay; conditions: 2'-F pyrimidines (all C and U); confocal; surface binding at 4 C increased by anti-CD7 mAb; internalised at 37 C only without mAb; protein on the cell surface; protein details: stably transfected CD7-HeLa cells; label: Cy3 or FAM
[2] = biological target: CD7 (T-cell surface receptor) (Homo sapiens) (UniProt P09564); assay: flow cytometry; conditions: protein on the cell surface
[3] = 2'-F pyrimidines (all C and U), 400 nM, 4 C, binds CD7-HeLa more than HeLa, reduced by anti-CD7 mAb, protein details: stably transfected CD7-HeLa cells, label: …
[4] = 2'-F pyrimidines (all C and U), 400 nM, 4 C, binds CD7-HeLa more than HeLa, reduced by anti-CD7 mAb, protein details: stably transfected CD7-HeLa cells, label: FAM or Cy3
[5] = 2'-F pyrimidines (all C and U), Jurkat, 400 nM overnight 37 C, association significantly different from transfection control, protein details: endogenous on Jurkat cells (ATCC TIB-152), label: FAM or Cy3

“GGGAGACAAGAAUAAGCAUGCGUCCCACACCCUCCGAUUCCGACCAGGACUGGAUACUUACACUUUUUCGACAGGAGGCUCACAACAGGC [CSIR 3.42]”: binds [1].

“GGGAGACAAGAAUAAGCAUGUUACCUACAAAAAAGAAAAAGAAUUAAACGGAUUAAGAAGGGGAAAAAGUAGUUCGACAGGAGGCUCACAACAGGC [CSIR 3.45]”: binds [2, 3].

“GGGAGACAAGAAUAAGCAUGGAUCUUUCGACAGGAGGCUCACAACAGGC [CSIR 3.35]”: binds [2, 4]; binds more weakly [2, 5].

“GGGAGACAAGAAUAAGCAUGCAAUUUAUCGAGACCCAGAUAACCGAUUUAUACGCAGACGAUAAGUUUCGACAGGAGGCUCACAACAGGC [CSIR 3.31]”: no binding ([2]; 2'-F pyrimidines (all C and U), Jurkat, 400 nM, non-binding negative control (1.97% at 6 h, 7.6% at 24 h), protein details: endogenous on Jurkat cells (ATCC TIB-152), label: FAM or Cy3).

“GGGAGACAAGAAUAAGCAUGGGCAGCGAUAGACUGUUAACUACAGACGGGAGUCCGCGUUUCGACAGGAGGCUCACAACAGGC [CSIR 3.36]”: binds [2, 3].

“GGGAGACAAGAATAAGCATGAGCGCCAATATGACCGCGACATCGTTTGAATAGTTCCTGGGGATCTTTCGACAGGAGGCTCACAACAGG [CSIR 3.14 DNA]”: no binding ([2]; Jurkat, 400 nM overnight, DNA isoform not able to bind significantly, protein details: endogenous on Jurkat cells (ATCC TIB-152), label: FAM, single-stranded DNA, variant of CSIR 3.14).

“GGGAGACAAGAAUAAGCAUGCCGGAUAAGGUCGUCCGUAGUACCGGUUAACGUACCAGCCUUACUCUUCGACAGGAGGCUCACAACAGGC [CSIR 3.15]”: binds [2, 3].

“GGGAGACAAGAAUAAGCAUGAGCGCCAAUAUGACCGCGACAUCGUUUGAAUAGUUCCUGGGGAUCUUUCGACAGGAGGCUCACAACAGG [CSIR 3.14]”: binds ([2]; 2'-F pyrimidines (all C and U), 400 nM, 4 C, binds CD7-HeLa more than HeLa, reduced by anti-CD7 mAb, protein details: stably transfected CD7-HeLa cells, label: Cy3 or FAM).

“GGGAGACAAGAAUAAGCAUGUCAUCUCACCGCCAUAAUCCUCAACAUUCUCCCCACCCGAUUCCCGUUCGACAGGAGGCUCACAACAGGC [CSIR 3.54]”: binds [2, 3].

“GGGAGACAAGAAUAAGCAUGUAAUUCCAGCAUAAAAAAGAUAGGUACUAUUAAUACACGACCAGAAUUCGACAGGAGGCUCACAACAGGC [CSIR 3.6]”: binds ([2]; 2'-F pyrimidines (all C and U), 400 nM, 4 C, binds CD7-HeLa more than HeLa, also listed as increased with anti-CD7 mAb, protein details: stably transfected CD7-HeLa cells, label: FAM).

“GGGAGACAAGAAUAAGCAUGCCCCUUGCGGUUCCCACAUUAUCUCUCUGCUAUCCCGAUGGCCCGAUUCGACAGGAGGCUCACAACAGGC [CSIR 3.8]”: binds [2, 3].

“GGGAGACAAGAAUAAGCAUGCAGGUCCCACCGCCCCGCUCCCUUAUCAGCUUGGAAUACGUUUUCAUUCGACAGGAGGCUCACAACAGGC [CSIR 3.53]”: binds ([2]; 2'-F pyrimidines (all C and U), 400 nM, 4 C, binds CD7-HeLa more than HeLa, unchanged by anti-CD7 mAb, internalisation at 37 C not CD7 specific, protein details: stably transfected CD7-HeLa cells, label: …).

“GGGAGACAAGAAUAAGCAUGCUGGCAAUAAACGGCUAUAAGUAAAGUUCGACAGGAGGCUCACAACAGGC [CSIR 3.48]”: binds [2, 4]; binds more weakly [2, 5].

“GGGAGACAAGAAUAAGCAUGACCGUGCUCUGUGACAGGACUUUACUUAGGGAUAAGGGUUGAAACUUCGACAGGAGGCUCACAACAGGC [CSIR 3.47]”: binds [2, 3].

“GGGAGACAAGAAUAAGCAUGGCCGAUCCAUCCUCCCCACGACCAUCAUGAAUCCCAACAGGAACUUCGACAGGAGGCUCACAACAGGC [CSIR 3.10]”: binds [2, 3].

“GGGAGACAAGAAUAAGCAUGGAGUGCGUCGCCACUACUCCUCUCAUUACCUCUUGCAUUUCACUAUUCGACAGGAGGCUCACAACAGGC [CSIR 3.23]”: binds ([2]; 2'-F pyrimidines (all C and U), 400 nM, 4 C, binds CD7-HeLa more than HeLa, reduced by mAb, CD7-specific internalisation at 37 C by confocal, protein details: stably transfected CD7-HeLa cells, label: FAM).
